Data from PubChem BioAssay AID2718 (Broad Institute, 2010).
Out of some 320,000 compounds screened, about 480 (0.15%) were called active. The inconclusive results got no clear call from the source; some entries with a clear call stand among them for comparison. Cut-off read from the data, not from the text of the source: active = inhibition above about 26% (passing the limit was not always enough); inconclusive = no clear call, values can overlap the other calls.

Amino acid sequences for entries named in this document (tags omitted).
UniProt O15379, whole entry, looked up: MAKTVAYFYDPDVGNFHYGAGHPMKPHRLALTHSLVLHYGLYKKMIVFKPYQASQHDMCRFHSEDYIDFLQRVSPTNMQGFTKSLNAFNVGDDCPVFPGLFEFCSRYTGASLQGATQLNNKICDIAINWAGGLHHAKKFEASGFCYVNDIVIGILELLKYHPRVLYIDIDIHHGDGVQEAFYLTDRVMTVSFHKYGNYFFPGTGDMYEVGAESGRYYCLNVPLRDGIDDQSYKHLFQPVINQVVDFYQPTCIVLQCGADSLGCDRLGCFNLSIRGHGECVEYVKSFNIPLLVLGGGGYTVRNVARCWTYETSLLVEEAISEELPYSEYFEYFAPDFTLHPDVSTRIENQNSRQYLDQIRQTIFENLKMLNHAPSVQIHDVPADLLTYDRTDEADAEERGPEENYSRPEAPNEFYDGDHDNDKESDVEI

molecular target: Histone deacetylase 3 (Homo sapiens) (UniProt O15379); test: HDAC3 deacetylase inhibitors, primary screen, biochemical, fluorescence, cell-free homogeneous (AID 2718); conditions: recombinant HDAC3, fluorogenic peptide/trypsin coupled, at 8.3 µM, active compounds read high

SMILES	inhibition
CC1=Nc2ccccc2N=C(NC(=O)CSC(=S)N2CCCCC2)C1c1ccccc1 (stereo unspecified)	inconclusive: 44.4%
COc1ccccc1CNC(=O)COC(=O)/C=C/c1ccc2c(c1)OCO2	inactive: -0.633%
Cc1ccc2nsnc2c1S(=O)(=O)N1CCN(C(=O)C2CCCO2)CC1 (stereo unspecified)	inconclusive: 18.8%
Cc1ccc(NC(=O)CN(C)C(C)C(=O)Nc2ccc(S(=O)(=O)N3CCCC3)cc2)cc1 (stereo unspecified)	inconclusive: 13.3%
CCN(CC)CC#CCC(O)(c1ccccc1)C1CCCC1 (stereo unspecified)	inactive: -2.47%
COc1ccc(S(=O)(=O)Nc2cc(C)cc(C)n2)c2ccccc12	inconclusive: 16.9%
C=CCC[C@@H](Cc1ccc(F)cc1)C(=O)OC[C@@H]1CCCN1C(=O)[C@@H](CC=C)CC(=O)N[C@@H](CO)Cc1ccccc1	active: 35.1%
CC(=O)NC(Cc1ccccc1)C(=O)NC1CCN(C(=O)c2cnccn2)CC1 (stereo unspecified)	inconclusive: 11.5%
Cc1ccccc1-c1nnnn1C1CCS(=O)(=O)C1 (stereo unspecified)	inconclusive: 11.3%
CC(C)c1nc2ccc(Br)cn2c1NC1CCCC1	inactive: -2.16%
Cc1cccc(-c2nc3ccccc3c3nncn23)c1	inconclusive: 13.7%
CS(=O)(=O)N1N=C(c2cccs2)CC1c1ccccc1O (stereo unspecified)	inconclusive: 23.6%
O=C(/C=C\c1cccs1)c1c(O)ccc2ccc(=O)oc12	inactive: 4.1%
CCOC(=O)c1c[nH]c2ccc3ccccc3c2c1=O	inconclusive: 12.7%
CN(C(=O)COC(=O)c1cc(S(=O)(=O)N2CCCCC2)ccc1Cl)c1ccccc1	inconclusive: 24.2%
COc1c(C(CC(C)C)OC(C)=O)ccc2c1C(=O)OCc1cc(C)cc(O)c1O2 (stereo unspecified)	active: 33.9%
CCOc1ccccc1/C=N/NC(=O)c1ccc(Cn2cc([N+](=O)[O-])cn2)o1	inconclusive: 17%
CC1CCN(C(=O)COC(=O)C2CCN(S(=O)(=O)c3ccc(Cl)c(C(F)(F)F)c3)CC2)CC1	inconclusive: 21.9%
O=C1NC(=O)/C(=C\c2ccc(O)cc2O)S1	inconclusive: 23%

SMILES	inhibition
O=C(CP(=O)(c1ccccc1)c1ccccc1)N1CCCCC1	inconclusive: 23.9%
CCOC(=O)Cc1csc(NC(=O)CCCN2C(=O)c3ccccc3C2=O)n1	inconclusive: 13.6%
CC(=O)N1CCc2cc(S(=O)(=O)NCCCN3CCN(Cc4ccccc4)CC3)ccc21	inconclusive: 14.7%
CCCCOC(=O)c1ccc(NC(=O)COC(=O)c2ccc3ncsc3c2)cc1	inconclusive: 22%
CCOC(=O)N1CCC(=NNS(=O)(=O)c2cccc([N+](=O)[O-])c2)CC1	inconclusive: 14.8%
CC(C)c1ccc(C(=O)OCC(=O)c2c(N)n(C)c(=O)n(C)c2=O)cc1	inconclusive: 27.3%
COc1ccc(-c2noc(CCCOc3ccc(Cl)cc3Cl)n2)cc1	inconclusive: 13.8%
CCOC(=O)c1c(C)oc2c1C(=O)c1ccccc1C2=O	inactive: 0.786%
COc1ccc(OC)c(C2C(C(C)=O)=C(O)C(=O)N2CCC(=O)O)c1 (stereo unspecified)	inconclusive: 18.8%
CC(=O)c1cnc(-c2ccccc2Cl)s1	inconclusive: 19.2%
CCCCn1nnc(NC(=O)c2ccc(-c3ccccc3[N+](=O)[O-])o2)n1	inconclusive: 18%
CCOc1ccc(C(=O)NC(=S)Nc2ccccc2N2CCC(C)CC2)cc1[N+](=O)[O-]	inactive: 13.5%
CCC(C)(C)n1nnnc1C(c1ccccn1)N1CCOCC1 (stereo unspecified)	inconclusive: 18.7%
Cc1cccn2c(=O)c3cc(C(=O)NCC(C)C)sc3nc12	inconclusive: 10.6%
N#Cc1ccccc1OCC(=O)N1CCN(S(=O)(=O)c2ccc(Cl)cc2)CC1	inactive: -1.76%
CCOc1ccc(C2/C(=C(/O)c3ccc(S(=O)(=O)N4CCCCC4)cc3)C(=O)C(=O)N2CCCOC)cc1OC (stereo unspecified)	inactive: -3.33%
N/N=C/C(=N\Nc1ccc(Cl)cc1)C(=O)c1ccncc1	inconclusive: 27.2%
COc1ccc2ccccc2c1C1CC(=O)N2CN(Cc3ccco3)CSC2=C1C#N (stereo unspecified)	active: 44.4%
Cc1nn(-c2ccc(F)cc2)c2nc(N)c(C#N)c(-c3cccs3)c12	inactive: -18.6%

3 successive records already listed:
SMILES	inhibition
CC(=O)c1cnc(-c2ccccc2Cl)s1	inconclusive: 19.2%
CCCCn1nnc(NC(=O)c2ccc(-c3ccccc3[N+](=O)[O-])o2)n1	inconclusive: 18%
CCOc1ccc(C(=O)NC(=S)Nc2ccccc2N2CCC(C)CC2)cc1[N+](=O)[O-]	inactive: 13.5%

(cont.)

SMILES	inhibition
CC1(C)CC(=O)C2=C(C1)NC(=S)C(C#N)C21CCCCC1 (stereo unspecified)	active: 39.4%
Cc1cc(OCC(O)CNC(C)c2ccccc2)ccc1C(C)C (stereo unspecified)	inconclusive: 25.3%
Cc1cc(C)c2c(N)c(C(=O)N3CCc4ccccc4C3)sc2n1	inactive: 9.54%
CC(C)N1CC=C2C(C#N)=C(N)C(C#N)(C#N)[C@H](c3ccoc3)[C@H]2C1	inconclusive: 22.6%
OC(CNC1CCCCCC1)COc1cccc2ccccc12 (stereo unspecified)	inconclusive: 11.9%
COCCCn1c(=O)c2sccc2n2c(CCCC(=O)NCc3cccc(OC)c3)nnc12	inconclusive: 17.3%
O=[N+]([O-])c1ccccc1CNCCCCCO	inconclusive: 24.8%
CCn1ncc(N(C)N)c(Cl)c1=O	inconclusive: 22.4%
S=c1[nH]nc(-c2ccncc2)n1/N=C/C=C/c1ccccc1	inconclusive: 26.8%
COc1cc(OC)cc(C(=O)NNC(=S)Nc2ccc(S(N)(=O)=O)cc2)c1	inactive: 1.19%
CCC(CC)C(=O)Nc1nnc(SCC(=O)NC2CCCCC2)s1	inactive: -9.32%
CC(C)OCCCNC(=O)C1CCN(S(=O)(=O)c2ccc3nc4c(c(C(=O)O)c3c2)CCCCC4)CC1	inactive: -8.45%
Cc1ccc(C(=O)NC(=S)NCc2cccnc2)cc1C	inconclusive: 20.5%
O=C(NCC(c1ccco1)N1CCOCC1)C1CCCCC1 (stereo unspecified)	inconclusive: 15.8%
Cc1ccc(C)c(NC(=O)CN(C)C(=O)CSCc2c(C)noc2C)c1	inconclusive: 18.1%
CCCn1nnnc1NCc1ccc(N(CC)CC)cc1	inactive: -9.33%
COc1ccc(CN(CC(=O)NCC2CCCO2)C(=O)CCC(=O)Nc2cc(C)on2)cc1 (stereo unspecified)	inconclusive: 25.7%
COc1cc(C(=O)OCC(=O)NC(=O)NCc2ccccc2)ccc1OC(F)F	inactive: 5.5e-05%
